Data taken from US9241991B2, “Agents, compositions, and methods for treating pruritus and related skin conditions” (The Brigham and Women's Hospital, Inc., priority 2010, dated 2016).
At least one compound was matched to its structure with a doubt left.

Legend:
TLR7 [1] = biological target: T1, TLR7 (Mus musculus, UniProt P58681); test: Cheek model of itch versus pain, TLR7 ligands; assay type: in vivo, mice; details: 20 μg intradermal into the cheek
T1 construct: We found functional TLR7 receptors in small-size DRG neurons; from tissue; host or cells: small DRG neurons of mice; nape and cheek skin of live mice (C57BL/6J background, CD1)
T1 sequence (P58681 27-1050): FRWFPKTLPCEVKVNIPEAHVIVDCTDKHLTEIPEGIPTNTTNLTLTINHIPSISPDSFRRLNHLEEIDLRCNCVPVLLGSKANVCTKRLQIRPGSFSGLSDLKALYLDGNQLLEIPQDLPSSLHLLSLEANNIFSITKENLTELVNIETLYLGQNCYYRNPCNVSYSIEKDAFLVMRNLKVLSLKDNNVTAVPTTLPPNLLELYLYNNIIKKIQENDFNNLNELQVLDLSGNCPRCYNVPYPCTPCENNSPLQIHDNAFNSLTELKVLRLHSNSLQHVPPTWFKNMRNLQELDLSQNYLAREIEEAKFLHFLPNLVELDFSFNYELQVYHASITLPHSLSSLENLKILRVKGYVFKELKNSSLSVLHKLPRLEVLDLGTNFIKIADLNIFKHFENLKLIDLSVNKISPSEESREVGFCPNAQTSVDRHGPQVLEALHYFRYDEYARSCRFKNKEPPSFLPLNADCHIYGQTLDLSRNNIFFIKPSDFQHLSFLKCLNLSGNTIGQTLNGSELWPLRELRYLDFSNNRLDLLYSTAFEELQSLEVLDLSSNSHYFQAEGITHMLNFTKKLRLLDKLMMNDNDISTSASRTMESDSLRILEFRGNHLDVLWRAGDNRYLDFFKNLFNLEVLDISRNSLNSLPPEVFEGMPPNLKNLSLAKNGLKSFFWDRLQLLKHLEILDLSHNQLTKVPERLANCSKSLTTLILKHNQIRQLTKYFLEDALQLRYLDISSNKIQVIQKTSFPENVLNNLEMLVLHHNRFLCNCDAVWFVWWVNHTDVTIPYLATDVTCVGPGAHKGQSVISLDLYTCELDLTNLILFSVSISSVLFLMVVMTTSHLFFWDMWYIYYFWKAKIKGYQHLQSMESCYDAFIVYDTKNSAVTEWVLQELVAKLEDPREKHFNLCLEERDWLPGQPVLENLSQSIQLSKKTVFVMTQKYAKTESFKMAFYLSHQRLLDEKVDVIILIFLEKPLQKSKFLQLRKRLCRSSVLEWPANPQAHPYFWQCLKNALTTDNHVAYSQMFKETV
Experimental: To distinguish itch and pain responses simultaneously, we used the cheek model by injection of chemical into cheek of mice (8). After brief anesthesia with isoflurane, we shaved mice on cheeks (approx. 5×8 mm area) two days before experiments. On the day of experiment, we injected 10 μl of reagent (50 μg compound 48/80 or 100 μg chloroquine) into the cheek and counted the number of wipes and the number of scratches for 30 min. We only counted those unilateral wipes with the forelimb that were not part of grooming behavior. One scratch was defined as a lifting of the hind paw toward the injection site on the cheek and then returning the paw to the floor or to the mouth.
To further investigate a unique role of TLR7 in itch versus pain, we used a recently developed “cheek model” of itch (Shimada, S. G. & LaMotte, R. H. Pain 139, 681-687 (2008)).

TLR7 [2] = biological target: T1, TLR7; test: Patch clamp recording of inward currents and action potentials in small DRG neurons, TLR7 ligands; assay type: cell-based; details: capsaicin-responsive DRG neurons of WT but not Tlr7-/- mice; imiquimod 20-500 μM
TLR7 [3] = test: Scratches after intradermal injection in the nape of the neck, WT and Tlr7-/- mice; assay type: in vivo
Description: We next evaluated whether TLR7 plays a role in itch sensation. We counted the number of scratches (bouts) by a hindpaw of mouse following intradermal injection of pruritogenic agents in the nape of the neck.

CCOCc1nc2c(N)nc3ccccc3c2n1CC(C)(C)O [R848, resiquimod]
itch-like scratching in cheek model (TLR7 [1]): elicited itch-like scratching
pain-indicative wiping in cheek model (TLR7 [1]): not pain-indicative wiping behavior
inward currents in DRG neurons (TLR7 [2]): able to induce TLR7-dependent inward currents
dose response curve of scratching (TLR7 [3]; intradermal injection, nape): inverted-U-shaped dose response curve
scratches in Tlr7-/- mice versus WT (TLR7 [3]; intradermal, 100 μg): reduced
